Results reported in patent US11612612B2, “Pharmaceutical compositions” (CIPLA LIMITED, priority 2016, dated 2023).

Assay: in vitro
Conditions: human, Caco-2
Description: Cells were treated with drugs as follows:
Stock preparations: 10 mM stocks of all the drugs were prepared in DMSO. The test concentrations were further prepared in HBSS buffer containing 10 mM MES hydrate pH 6.8 as per the plate plan. Also, HBSS buffer with 10 mM HEPES with pH 7.4 was prepared.
The sample were analyzed on LCMS-MS.

SMILES: CC(C)NCC(O)COc1ccc(CC(N)=O)cc1 (stereo not shown) [Atenolol]
- Papp A→B at 120 min, 50 μM: 32.8 nm/s
